Results reported in article PMC11492288.
No constants are given. Whether binding was seen depends on the method and setting. Binding seen in cells or lysates may run through a third protein. A result given as binding can be weak or reduced; the word gives no strength. Sequences can lack the tags named with a protein.

Molecular target: T1, NLRP10-FLAG (human) (UniProt Q86W26)
T1 sequence: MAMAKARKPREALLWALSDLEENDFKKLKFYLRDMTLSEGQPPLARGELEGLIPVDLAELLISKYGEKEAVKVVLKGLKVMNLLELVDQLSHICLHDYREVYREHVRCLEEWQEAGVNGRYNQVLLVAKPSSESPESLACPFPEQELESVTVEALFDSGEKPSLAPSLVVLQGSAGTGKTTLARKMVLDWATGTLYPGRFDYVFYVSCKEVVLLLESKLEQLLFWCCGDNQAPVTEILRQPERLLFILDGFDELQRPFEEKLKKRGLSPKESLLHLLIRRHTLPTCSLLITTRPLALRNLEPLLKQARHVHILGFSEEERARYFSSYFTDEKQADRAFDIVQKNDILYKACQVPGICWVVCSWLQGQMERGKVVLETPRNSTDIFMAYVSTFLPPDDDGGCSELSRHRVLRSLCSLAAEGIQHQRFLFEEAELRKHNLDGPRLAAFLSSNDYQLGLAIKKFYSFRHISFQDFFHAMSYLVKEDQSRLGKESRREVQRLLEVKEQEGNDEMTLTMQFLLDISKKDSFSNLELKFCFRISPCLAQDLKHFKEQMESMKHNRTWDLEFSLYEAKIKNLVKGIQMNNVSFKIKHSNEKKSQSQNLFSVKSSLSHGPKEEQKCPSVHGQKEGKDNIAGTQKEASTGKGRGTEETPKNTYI
Assay: co-IP; NLRP10-FLAG co-transfected with caspase-HA constructs in 293T cells; IP lysis/wash buffer, 1 mg total lysate; pulled down with anti-FLAG resin, eluted with FLAG peptide; Western blot

“pro-domain of caspase-8 consisting of two tandem death-effector domains (tDEDs) (domain or fragment)” was tested, and the binding was “binds”.
“catalytic domain of caspase-1 (domain or fragment)” was tested, and the binding was “binds”.
